# Source: US7288573B2, “Method of repelling insects” (priority 2001, dated 2007)
# Some results were stated once for a whole list of compounds, not compound by compound.
# Test system: Culex quinquefasciatus
# Test: One-minute biting counts on treated forearm (Example 7)
# Assay type: in vivo
# Settings: 5% and 20% 2-undecanone, 20% 2-tridecanone formulations
compound,measurement,setting,value
CCCCCCCCCC(C)=O [2-undecanone],repellency,0 hour biting count,> 95%
same,repellency,6 hours post-treatment,60-74%
